Reference: paper doi:10.1101/2025.07.25.666749
Results are given in words; binding and its absence hold for the method and conditions named. In cells and extracts the contact can be indirect. A yes stands for co-enrichment or nearness to the bait. Other partners may have been found. Where a sequence is shown, tags or fusion partners need not be part of it.

T1: UltraID_ZFP36L1 (UltraID fused to the N-terminus of ZFP36L1) (UniProt Q07352)
T1 sequence: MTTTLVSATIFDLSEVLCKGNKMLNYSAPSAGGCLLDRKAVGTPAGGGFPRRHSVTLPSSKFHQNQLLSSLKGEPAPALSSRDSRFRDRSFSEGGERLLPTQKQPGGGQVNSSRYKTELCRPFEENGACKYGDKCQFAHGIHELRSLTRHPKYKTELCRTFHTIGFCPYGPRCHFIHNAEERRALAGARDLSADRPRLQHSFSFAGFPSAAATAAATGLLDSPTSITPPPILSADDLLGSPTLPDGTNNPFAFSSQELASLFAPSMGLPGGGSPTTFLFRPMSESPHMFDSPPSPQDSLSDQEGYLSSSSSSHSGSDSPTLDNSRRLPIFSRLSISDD

B1: UPF1 (protein, UniProt Q92900 1-1129)
chain: MSVEAYGPSSQTLTFLDTEEAELLGADTQGSEFEFTDFTLPSQTQTPPGGPGGPGGGGAGGPGGAGAGAAAGQLDAQVGPEGILQNGAVDDSVAKTSQLLAELNFEEDEEDTYYTKDLPIHACSYCGIHDPACVVYCNTSKKWFCNGRGNTSGSHIVNHLVRAKCKEVTLHKDGPLGETVLECYNCGCRNVFLLGFIPAKADSVVVLLCRQPCASQSSLKDINWDSSQWQPLIQDRCFLSWLVKIPSEQEQLRARQITAQQINKLEELWKENPSATLEDLEKPGVDEEPQHVLLRYEDAYQYQNIFGPLVKLEADYDKKLKESQTQDNITVRWDLGLNKKRIAYFTLPKTDSGNEDLVIIWLRDMRLMQGDEICLRYKGDLAPLWKGIGHVIKVPDNYGDEIAIELRSSVGAPVEVTHNFQVDFVWKSTSFDRMQSALKTFAVDETSVSGYIYHKLLGHEVEDVIIKCQLPKRFTAQGLPDLNHSQVYAVKTVLQRPLSLIQGPPGTGKTVTSATIVYHLARQGNGPVLVCAPSNIAVDQLTEKIHQTGLKVVRLCAKSREAIDSPVSFLALHNQIRNMDSMPELQKLQQLKDETGELSSADEKRYRALKRTAERELLMNADVICCTCVGAGDPRLAKMQFRSILIDESTQATEPECMVPVVLGAKQLILVGDHCQLGPVVMCKKAAKAGLSQSLFERLVVLGIRPIRLQVQYRMHPALSAFPSNIFYEGSLQNGVTAADRVKKGFDFQWPQPDKPMFFYVTQGQEEIASSGTSYLNRTEAANVEKITTKLLKAGAKPDQIGIITPYEGQRSYLVQYMQFSGSLHTKLYQEVEIASVDAFQGREKDFIILSCVRANEHQGIGFLNDPRRLNVALTRARYGVIIVGNPKALSKQPLWNHLLNYYKEQKVLVEGPLNNLRESLMQFSKPRKLVNTINPGARFMTTAMYDAREAIIPGSVYDRSSQGRPSSMYFQTHDQIGMISAGPSHVAAMNIPIPFNLVMPPMPPPGYFGQANGPAAGRGTPKGKTGRGGRQKNRFGLPGPSQTNLPNSQASQDVASQPFSQGALTQGYISMSQPSQMSQPGLSQPELSQDSYLGDEFKSQIDVALSQDSTYQGERAYQHGGVTGLSQY
B2: PATL1 (protein, UniProt Q86TB9 1-770)
chain: MFRYESLEDCPLDEDEDAFQGLGEEDEEIDQFNDDTFGSGAVDDDWQEAHERLAELEEKLPVAVNEQTGNGERDEMDLLGDHEENLAERLSKMVIENELEDPAIMRAVQTRPVLQPQPGSLNSSIWDGSEVLRRIRGPLLAQEMPTVSVLEYALPQRPPQGPEDDRDLSERALPRRSTSPIIGSPPVRAVPIGTPPKQMAVPSFTQQILCPKPVHVRPPMPPRYPAPYGERMSPNQLCSVPNSSLLGHPFPPSVPPVLSPLQRAQLLGGAQLQPGRMSPSQFARVPGFVGSPLAAMNPKLLQGRVGQMLPPAPGFRAFFSAPPSATPPPQQHPPGPGPHLQNLRSQAPMFRPDTTHLHPQHRRLLHQRQQQNRSQHRNLNGAGDRGSHRSSHQDHLRKDPYANLMLQREKDWVSKIQMMQLQSTDPYLDDFYYQNYFEKLEKLSAAEEIQGDGPKKERTKLITPQVAKLEHAYKPVQFEGSLGKLTVSSVNNPRKMIDAVVTSRSEDDETKEKQVRDKRRKTLVIIEKTYSLLLDVEDYERRYLLSLEEERPALMDDRKHKICSMYDNLRGKLPGQERPSDDHFVQIMCIRKGKRMVARILPFLSTEQAADILMTTARNLPFLIKKDAQDEVLPCLLSPFSLLLYHLPSVSITSLLRQLMNLPQSAATPALSNPHLTAVLQNKFGLSLLLILLSRGEDLQSSDPATESTQNNQWTEVMFMATRELLRIPQAALAKPISIPTNLVSLFSRYVDRQKLNLLETKLQLVQGIR
B3: ATXN2L (protein, UniProt Q8WWM7 1-1075)
chain: MLKPQPLQQPSQPQQPPPTQQAVARRPPGGTSPPNGGLPGPLATSAAPPGPPAAASPCLGPVAAAGSGLRRGAEGILAPQPPPPQQHQERPGAAAIGSARGQSTGKGPPQSPVFEGVYNNSRMLHFLTAVVGSTCDVKVKNGTTYEGIFKTLSSKFELAVDAVHRKASEPAGGPRREDIVDTMVFKPSDVMLVHFRNVDFNYATKDKFTDSAIAMNSKVNGEHKEKVLQRWEGGDSNSDDYDLESDMSNGWDPNEMFKFNEENYGVKTTYDSSLSSYTVPLEKDNSEEFRQRELRAAQLAREIESSPQYRLRIAMENDDGRTEEEKHSAVQRQGSGRESPSLASREGKYIPLPQRVREGPRGGVRCSSSRGGRPGLSSLPPRGPHHLDNSSPGPGSEARGINGGPSRMSPKAQRPLRGAKTLSSPSNRPSGETSVPPPPAVGRMYPPRSPKSAAPAPISASCPEPPIGSAVPTSSASIPVTSSVSDPGVGSISPASPKISLAPTDVKELSTKEPGRTLEPQELARIAGKVPGLQNEQKRFQLEELRKFGAQFKLQPSSSPENSLDPFPPRILKEEPKGKEKEVDGLLTSEPMGSPVSSKTESVSDKEDKPPLAPSGGTEGPEQPPPPCPSQTGSPPVGLIKGEDKDEGPVAEQVKKSTLNPNAKEFNPTKPLLSVNKSTSTPTSPGPRTHSTPSIPVLTAGQSGLYSPQYISYIPQIHMGPAVQAPQMYPYPVSNSVPGQQGKYRGAKGSLPPQRSDQHQPASAPPMMQAAAAAGPPLVAATPYSSYIPYNPQQFPGQPAMMQPMAHYPSQPVFAPMLQSNPRMLTSGSHPQAIVSSSTPQYPSAEQPTPQALYATVHQSYPHHATQLHAHQPQPATTPTGSQPQSQHAAPSPVQHQAGQAPHLGSGQPQQNLYHPGALTGTPPSLPPGPSAQSPQSSFPQPAAVYAIHHQQLPHGFTNMAHVTQAHVQTGITAAPPPHPGAPHPPQVMLLHPPQSHGGPPQGAVPQSGVPALSASTPSPYPYIGHPQGEQPGQAPGFPGGADDRIREFSLAGGIWHGRAEGLQVGQDARVLGGE
B4: UBAP2 (protein, UniProt Q5T6F2 1-1119)
chain: MMTSVSSDHCRGAREKPQISAAQSTQPQKQVVQATAEQMRLAQVIFDKNDSDFEAKVKQLMEVTGKNQDECIVALHDCNGDVNKAINILLEGNSDTTSWETVGCKKKNFAKENSENKENREKKSEKESSRGRGNNNRKGRGGNRGREFRGEENGIDCNQVDKPSDRGKRARGRGFGRGRGRGAGRFSTQGMGTFNPADYSDSTSTDVCGTKLVVWEAAQNGADEGTELASNTHNIAQDLSNKSSYGLKGAWKNSVEEWTTEDWTEDLSETKVFTASSAPAENHILPGQSIDLVALLQKPVPHSQASEANSFETSQQQGFGQALVFTNSQHNNQMAPGTGSSTAVNSCSPQSLSSVLGSGFGELAPPKMANITSSQILDQLKAPSLGQFTTTPSTQQNSTSHPTTTTSWDLKPPTSQSSVLSHLDFKSQPEPSPVLSQLSQRQQHQSQAVTVPPPGLESFPSQAKLRESTPGDSPSTVNKLLQLPSTTIENISVSVHQPQPKHIKLAKRRIPPASKIPASAVEMPGSADVTGLNVQFGALEFGSEPSLSEFGSAPSSENSNQIPISLYSKSLSEPLNTSLSMTSAVQNSTYTTSVITSCSLTSSSLNSASPVAMSSSYDQSSVHNRIPYQSPVSSSESAPGTIMNGHGGGRSQQTLDTPKTTGPPSALPSVSSLPSTTSCTALLPSTSQHTGDLTSSPLSQLSSSLSSHQSSLSAHAALSSSTSHTHASVESASSHQSSATFSTAATSVSSSASSGASLSSSMNTANSLCLGGTPASASSSSSRAAPLVTSGKAPPNLPQGVPPLLHNQYLVGPGGLLPAYPIYGYDELQMLQSRLPVDYYGIPFAAPTALASRDGSLANNPYPGDVTKFGRGDSASPAPATTPAQPQQSQSQTHHTAQQPFVNPALPPGYSYTGLPYYTGMPSAFQYGPTMFVPPASAKQHGVNLSTPTPPFQQASGYGQHGYSTGYDDLTQGTAAGDYSKGGYAGSSQAPNKSAGSGPGKGVSVSSSTTGLPDMTGSVYNKTQTFDKQGFHAGTPPPFSLPSVLGSTGPLASGAAPGYAPPPFLHILPAHQQPHSQLLHHHLPQDAQSGSGQRSQPSSLQPKSQASKPAYGNSPYWTN
B5: DCP1B (protein, UniProt Q8IZD4 1-617)
chain: MAAVAAGGLVGKGRDISLAALQRHDPYINRIVDVASQVALYTFGHRANEWEKTDVEGTLFVYTRSASPKHGFTIMNRLSMENRTEPITKDLDFQLQDPFLLYRNARLSIYGIWFYDKEECQRIAELMKNLTQYEQLKAHQGTGAGISPVILNSGEGKEVDILRMLIKAKDEYTKCKTCSEPKKITSSSAIYDNPNLIKPIPVKPSENQQQRIPQPNQTLDPEPQHLSLTALFGKQDKATCQETVEPPQTLHQQQQQQQQQQEKLPIRQGVVRSLSYEEPRRHSPPIEKQLCPAIQKLMVRSADLHPLSELPENRPCENGSTHSAGEFFTGPVQPGSPHNIGTSRGVQNASRTQNLFEKLQSTPGAANKCDPSTPAPASSAALNRSRAPTSVTPVAPGKGLAQPPQAYFNGSLPPQTVGHQAHGREQSTLPRQTLPISGSQTGSSGVISPQELLKKLQIVQQEQQLHASNRPALAAKFPVLAQSSGTGKPLESWINKTPNTEQQTPLFQVISPQRIPATAAPSLLMSPMVFAQPTSVPPKERESGLLPVGGQEPPAAATSLLLPIQSPEPSVITSSPLTKLQLQEALLYLIQNDDNFLNIIYEAYLFSMTQAAMKKTM

What follows are binders tested against T1, UltraID_ZFP36L1 (UltraID fused to the N-terminus of ZFP36L1) (assay: proximity labelling).
For B1, the binding was “binds”. For B2, the binding was “binds”. B3 was tested, and the binding was “binds”. For B4, the binding was “binds”. In the case of B5, the binding is reported as “binds”.

Target: T1, UltraID_ZFP36L1 (UltraID fused to the N-terminus of ZFP36L1)
Assay: proximity labelling
Remark: another data set of the same source
B1 was tested, and the binding was “binds”. With B2 the binding was “binds”. For B3, the binding was “binds”. B4 was tested, and the binding was “binds”. For B5, the binding was “binds”.
